{
  "source": "the supplement of paper PMC6411743",
  "test_in_all_cases": "NP40-soluble protein abundance relative to vehicle (solubility fold change) (ratio); higher = more soluble protein in presence of AMP-PNP",
  "key": {"UniProt Q9H0G5": {"target": "T1, UniProt Q9H0G5", "T1 sequence (whole entry)": "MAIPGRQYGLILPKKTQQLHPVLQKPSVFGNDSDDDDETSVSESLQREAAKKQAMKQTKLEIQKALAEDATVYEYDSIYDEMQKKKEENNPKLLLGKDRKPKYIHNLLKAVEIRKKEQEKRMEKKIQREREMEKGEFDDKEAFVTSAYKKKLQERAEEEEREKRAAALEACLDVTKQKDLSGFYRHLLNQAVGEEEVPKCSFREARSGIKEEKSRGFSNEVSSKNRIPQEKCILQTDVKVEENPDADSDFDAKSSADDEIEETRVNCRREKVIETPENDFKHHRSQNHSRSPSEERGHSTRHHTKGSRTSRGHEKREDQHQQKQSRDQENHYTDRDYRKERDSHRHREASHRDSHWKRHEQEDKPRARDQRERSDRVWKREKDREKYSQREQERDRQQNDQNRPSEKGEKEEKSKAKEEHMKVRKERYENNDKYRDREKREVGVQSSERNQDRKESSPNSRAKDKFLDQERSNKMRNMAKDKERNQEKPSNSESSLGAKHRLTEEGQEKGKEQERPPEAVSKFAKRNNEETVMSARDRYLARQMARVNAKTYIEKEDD", "procedure,_shortened": "(§1)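 Each value is a fold change relative to the detergent-processed vehicle, calculated per replicate from vsn-normalised intensities. Jurkat crude lysate received eight concentrations (0.1 to 10 mM) for 10 min at room temperature and 3 min at 37 °C, then was solubilised in 0.8% NP40 with benzonase (60 min, 4 °C). The ultracentrifuged supernatant was TMT-labelled and run by LC-MS/MS in three independent experiments.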"}, "UniProt Q9H0X4": {"target": "T2, UniProt Q9H0X4", "T2 sequence (whole entry)": "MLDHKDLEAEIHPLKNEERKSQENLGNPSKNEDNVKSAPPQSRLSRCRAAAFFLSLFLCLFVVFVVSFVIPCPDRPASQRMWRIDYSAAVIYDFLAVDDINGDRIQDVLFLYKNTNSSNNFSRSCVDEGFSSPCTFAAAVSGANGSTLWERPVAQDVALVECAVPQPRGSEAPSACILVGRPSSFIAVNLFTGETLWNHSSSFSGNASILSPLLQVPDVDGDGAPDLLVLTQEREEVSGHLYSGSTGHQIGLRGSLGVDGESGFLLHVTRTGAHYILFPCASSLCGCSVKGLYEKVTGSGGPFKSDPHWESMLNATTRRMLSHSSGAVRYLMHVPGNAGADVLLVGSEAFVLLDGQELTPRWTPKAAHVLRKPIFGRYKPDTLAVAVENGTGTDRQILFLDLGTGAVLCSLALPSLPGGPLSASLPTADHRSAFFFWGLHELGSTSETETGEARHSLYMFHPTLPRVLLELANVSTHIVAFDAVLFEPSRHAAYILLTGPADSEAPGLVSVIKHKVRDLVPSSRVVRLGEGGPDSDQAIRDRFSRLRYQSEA", "procedure,_shortened": "as §1"}, "[1]": {"target": "T3, UniProt Q9H270 and related entries", "T3 sequence (whole entry)": "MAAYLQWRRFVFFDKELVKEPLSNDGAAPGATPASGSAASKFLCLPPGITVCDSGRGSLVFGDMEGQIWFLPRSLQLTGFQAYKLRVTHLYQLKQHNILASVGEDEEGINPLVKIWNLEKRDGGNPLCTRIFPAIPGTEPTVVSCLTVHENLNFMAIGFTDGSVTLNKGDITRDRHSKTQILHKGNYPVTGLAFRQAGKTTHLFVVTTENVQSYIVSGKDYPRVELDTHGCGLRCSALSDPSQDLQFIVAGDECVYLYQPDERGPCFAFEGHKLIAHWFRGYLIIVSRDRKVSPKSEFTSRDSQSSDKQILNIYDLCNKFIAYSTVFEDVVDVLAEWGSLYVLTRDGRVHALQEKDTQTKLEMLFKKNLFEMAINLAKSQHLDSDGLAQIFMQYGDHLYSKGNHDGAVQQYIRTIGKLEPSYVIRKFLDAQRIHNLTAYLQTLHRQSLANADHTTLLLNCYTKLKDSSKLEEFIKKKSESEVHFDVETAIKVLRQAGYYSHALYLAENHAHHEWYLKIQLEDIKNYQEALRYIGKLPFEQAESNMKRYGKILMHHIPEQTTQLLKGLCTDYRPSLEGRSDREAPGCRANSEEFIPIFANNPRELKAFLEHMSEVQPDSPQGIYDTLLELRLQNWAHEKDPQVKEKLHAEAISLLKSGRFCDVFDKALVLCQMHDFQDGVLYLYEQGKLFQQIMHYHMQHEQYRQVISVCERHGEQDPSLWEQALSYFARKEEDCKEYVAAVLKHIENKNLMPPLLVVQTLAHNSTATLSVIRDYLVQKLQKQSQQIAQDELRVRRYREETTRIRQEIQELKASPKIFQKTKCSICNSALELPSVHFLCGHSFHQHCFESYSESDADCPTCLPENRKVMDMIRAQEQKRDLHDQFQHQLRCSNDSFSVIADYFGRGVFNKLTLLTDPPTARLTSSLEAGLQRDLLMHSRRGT", "procedure,_shortened": "as §1"}, "[2]": {"target": "T4, UniProt Q9H300 and related entries", "T4 sequence (whole entry)": "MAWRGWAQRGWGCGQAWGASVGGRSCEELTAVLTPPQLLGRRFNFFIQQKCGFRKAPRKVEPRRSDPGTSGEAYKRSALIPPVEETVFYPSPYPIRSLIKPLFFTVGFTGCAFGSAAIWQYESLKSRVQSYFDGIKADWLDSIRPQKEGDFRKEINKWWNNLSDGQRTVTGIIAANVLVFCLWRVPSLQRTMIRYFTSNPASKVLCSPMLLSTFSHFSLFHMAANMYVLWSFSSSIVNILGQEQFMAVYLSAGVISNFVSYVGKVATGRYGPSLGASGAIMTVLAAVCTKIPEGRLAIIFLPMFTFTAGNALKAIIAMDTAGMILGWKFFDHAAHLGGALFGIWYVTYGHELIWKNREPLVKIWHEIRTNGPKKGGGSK", "procedure,_shortened": "as §1"}, "[3]": {"target": "T5, UniProt Q9H4L7 and related entries", "T5 sequence (whole entry)": "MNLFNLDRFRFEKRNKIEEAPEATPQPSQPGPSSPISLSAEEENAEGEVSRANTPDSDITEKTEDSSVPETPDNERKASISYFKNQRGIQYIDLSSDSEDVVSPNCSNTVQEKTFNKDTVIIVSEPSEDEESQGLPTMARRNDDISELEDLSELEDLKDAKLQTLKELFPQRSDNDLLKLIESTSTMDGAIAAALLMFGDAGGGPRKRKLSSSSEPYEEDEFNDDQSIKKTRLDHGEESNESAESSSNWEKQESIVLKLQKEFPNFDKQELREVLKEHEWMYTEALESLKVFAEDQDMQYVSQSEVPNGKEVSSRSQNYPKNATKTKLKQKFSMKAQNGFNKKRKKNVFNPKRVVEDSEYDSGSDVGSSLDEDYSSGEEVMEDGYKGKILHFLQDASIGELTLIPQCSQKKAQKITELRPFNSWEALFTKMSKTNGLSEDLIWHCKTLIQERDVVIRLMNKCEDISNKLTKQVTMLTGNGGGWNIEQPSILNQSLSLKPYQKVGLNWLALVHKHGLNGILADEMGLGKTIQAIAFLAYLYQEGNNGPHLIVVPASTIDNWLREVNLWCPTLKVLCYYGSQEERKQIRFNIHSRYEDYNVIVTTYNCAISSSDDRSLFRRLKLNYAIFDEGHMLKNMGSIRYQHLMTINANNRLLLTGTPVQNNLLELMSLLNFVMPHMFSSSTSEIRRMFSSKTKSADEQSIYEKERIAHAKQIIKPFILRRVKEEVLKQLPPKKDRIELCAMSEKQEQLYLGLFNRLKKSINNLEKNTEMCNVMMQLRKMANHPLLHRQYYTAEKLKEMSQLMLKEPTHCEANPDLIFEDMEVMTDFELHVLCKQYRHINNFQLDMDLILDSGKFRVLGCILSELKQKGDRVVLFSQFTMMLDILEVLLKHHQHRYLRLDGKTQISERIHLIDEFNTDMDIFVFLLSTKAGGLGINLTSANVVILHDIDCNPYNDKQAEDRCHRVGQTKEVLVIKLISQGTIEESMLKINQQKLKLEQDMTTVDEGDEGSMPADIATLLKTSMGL", "procedure,_shortened": "as §1"}},
  "note": "± gives the standard deviation of the averaged measurements. The list shows a part of the results, in another mix than the full data.",
  "data": [
    {"smiles": "Nc1ncnc2c1ncn2[C@@H]1O[C@H](COP(=O)(O)OP(=O)(O)NP(=O)(O)O)[C@@H](O)[C@H]1O", "note": "[adenylyl imidodiphosphate]", "values": [
      {"measurement": "NP40-soluble protein abundance", "setting": "UniProt Q9H0G5; concentration: 1mM", "result": "1.04 ± 0.016"},
      {"measurement": "NP40-soluble protein abundance", "setting": "UniProt Q9H0G5; concentration: 2mM", "result": "1.1 ± 0.033"},
      {"measurement": "NP40-soluble protein abundance", "setting": "UniProt Q9H0G5; concentration: 4mM", "result": "1.06 ± 0.051"},
      {"measurement": "NP40-soluble protein abundance", "setting": "UniProt Q9H0G5; concentration: 6mM", "result": "1.02 ± 0.046"},
      {"measurement": "NP40-soluble protein abundance", "setting": "UniProt Q9H0G5; concentration: 8mM", "result": "1.03 ± 0.012"},
      {"measurement": "NP40-soluble protein abundance", "setting": "UniProt Q9H0G5; concentration: 10mM", "result": "1.09 ± 0.038"},
      {"measurement": "NP40-soluble protein abundance", "setting": "UniProt Q9H0X4; concentration: 1mM", "result": "0.955 ± 0.05"},
      {"measurement": "NP40-soluble protein abundance", "setting": "UniProt Q9H0X4; concentration: 2mM", "result": "0.997 ± 0.049"},
      {"measurement": "NP40-soluble protein abundance", "setting": "UniProt Q9H0X4; concentration: 4mM", "result": "0.97 ± 0.03"},
      {"measurement": "NP40-soluble protein abundance", "setting": "UniProt Q9H0X4; concentration: 6mM", "result": "0.994 ± 0.051"},
      {"measurement": "NP40-soluble protein abundance", "setting": "UniProt Q9H0X4; concentration: 8mM", "result": "0.965 ± 0.043"},
      {"measurement": "NP40-soluble protein abundance", "setting": "UniProt Q9H0X4; concentration: 10mM", "result": "0.958 ± 0.043"},
      {"measurement": "NP40-soluble protein abundance", "setting": "[1]; concentration: 1mM", "result": "1.003 ± 0.0068"},
      {"measurement": "NP40-soluble protein abundance", "setting": "[1]; concentration: 2mM", "result": "0.93 ± 0.087"},
      {"measurement": "NP40-soluble protein abundance", "setting": "[1]; concentration: 4mM", "result": "0.995 ± 0.016"},
      {"measurement": "NP40-soluble protein abundance", "setting": "[1]; concentration: 6mM", "result": "0.9627 ± 0.0063"},
      {"measurement": "NP40-soluble protein abundance", "setting": "[1]; concentration: 8mM", "result": "0.9847 ± 0.0026"},
      {"measurement": "NP40-soluble protein abundance", "setting": "[1]; concentration: 10mM", "result": "0.953 ± 0.046"},
      {"measurement": "NP40-soluble protein abundance", "setting": "[2]; concentration: 1mM", "result": "1.07 ± 0.05"},
      {"measurement": "NP40-soluble protein abundance", "setting": "[2]; concentration: 2mM", "result": "1.12 ± 0.075"},
      {"measurement": "NP40-soluble protein abundance", "setting": "[2]; concentration: 4mM", "result": "1.05 ± 0.071"},
      {"measurement": "NP40-soluble protein abundance", "setting": "[2]; concentration: 6mM", "result": "1.08 ± 0.029"},
      {"measurement": "NP40-soluble protein abundance", "setting": "[2]; concentration: 8mM", "result": "1.04 ± 0.029"},
      {"measurement": "NP40-soluble protein abundance", "setting": "[2]; concentration: 10mM", "result": "1.12 ± 0.067"},
      {"measurement": "NP40-soluble protein abundance", "setting": "[3]; concentration: 1mM", "result": "0.983 ± 0.011"},
      {"measurement": "NP40-soluble protein abundance", "setting": "[3]; concentration: 2mM", "result": "0.981 ± 0.027"},
      {"measurement": "NP40-soluble protein abundance", "setting": "[3]; concentration: 4mM", "result": "0.954 ± 0.017"},
      {"measurement": "NP40-soluble protein abundance", "setting": "[3]; concentration: 6mM", "result": "0.953 ± 0.015"},
      {"measurement": "NP40-soluble protein abundance", "setting": "[3]; concentration: 8mM", "result": "0.9284 ± 0.0016"},
      {"measurement": "NP40-soluble protein abundance", "setting": "[3]; concentration: 10mM", "result": "0.929 ± 0.017"}
    ]}
  ]
}
